Measured values taken from paper doi:10.1101/2021.08.02.453806.

What was measured:
[1] = target: 10xHIS-MBP-3C-NRDE2ΔN (human); test: pull-down
[2] = target: MBP-PPM-1.D-10xHIS (C. elegans); test: pull-down

binding [1]: no binding
binding [2]: binds
B1: GST-CHK-2-3xFLAG (enzyme, UniProt Q9U1Y5 1-476)
chain: MVRGTKRRRSSAEKPIVVVPVTRDDTMPVDEDLVVGESQCAASKPFAKLVGVRRGISSIDLADDHFVCGRGSDDAPTNFNFSQVAKDVGLYRFISKIQFSIDRDTETRRIYLHDHSRNGTLVNQEMIGKGLSRELMNGDLISIGIPALIIFVYESADADHHPEELTKKYHVTSHSLGKGGFGKVLLGYKKSDRSVVAIKQLNTQFSTRCSRAIAKTRDIRNEVEVMKKLSHPNIVAIYDWITVAKYSYMVIEYVGGGEFFSKVVDSKYNRMGLGESLGKYFAFQLIDAILYLHSVGICHRDIKPENILCSDKAERCILKLTDFGMAKNSVNRMKTRCGTPSYNAPEIVANEGVEYTPKVDIWSLGCVLFITFSGYPPFSEEYTDMTMDEQVLTGRLIFHAQWRRITVETQNMIKWMLTVEPSNRPSAVELMSTQWMKCADCRTAKQDILKSIKPISAAAPAALQTTQAGPVKKAKM

These are yes or no findings as the source states them, for the method shown. Binding seen in cells or lysates may run through a third protein. For some assays here: Binding calls can cover weak binding; strength is not graded here. Where a sequence is shown, tags or fusion partners need not be part of it.
